# Some of the results follow.
# Key:
# Test in all cases: glycan array binding signal (z-score within array); higher = stronger binding
# Conditions in all cases: glycan notation: IUPAC condensed, linker removed
# [1] = target: Gal(b1-4)GlcNAc(b1-3)Gal(b1-3)GalNAc
# Summary of the method: (§1)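 The Consortium for Functional Glycomics database supplied 3228 glycan arrays, of which those lacking an available protein sequence were dropped. The binding signal, a within-array Z-score, was averaged across arrays of the same protein sequence and across linkers. Negative scores can be read as non-binding.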
# [2] = target: Gal(b1-4)GlcNAc(b1-3)Gal(b1-3)GlcNAc
# Summary of the method: as §1
# [3] = target: Gal(b1-4)GlcNAc(b1-3)Gal(b1-4)Glc
# Summary of the method: as §1
# [4] = target: Gal(b1-4)GlcNAc(b1-3)Gal(b1-4)GlcNAc
# Summary of the method: as §1
# [5] = target: Gal(b1-4)GlcNAc(b1-3)Gal(b1-4)GlcNAc(b1-2)Man(a1-3)[Gal(b1-4)GlcNAc(b1-3)Gal(b1-4)GlcNAc(b1-2)Man(a1-6)]Man(b1-4)GlcNAc(b1-4)GlcNAc
# Summary of the method: as §1
# [6] = target: Gal(b1-4)GlcNAc(b1-3)Gal(b1-4)GlcNAc(b1-2)Man(a1-3)[Gal(b1-4)GlcNAc(b1-3)Gal(b1-4)GlcNAc(b1-2)Man(a1-6)]Man(b1-4)GlcNAc(b1-4)[Fuc(a1-6)]GlcNAc
# Summary of the method: as §1
# [7] = target: Gal(b1-4)GlcNAc(b1-3)Gal(b1-4)GlcNAc(b1-2)[Gal(b1-4)GlcNAc(b1-3)Gal(b1-4)GlcNAc(b1-6)]Man(a1-6)[Gal(b1-4)GlcNAc(b1-3)Gal(b1-4)GlcNAc(b1-2)Man(a1-3)]Man(b1-4)GlcNAc(b1-4)GlcNAc
# Summary of the method: as §1
# [8] = target: Gal(b1-4)GlcNAc(b1-3)Gal(b1-4)GlcNAc(b1-2)[Gal(b1-4)GlcNAc(b1-3)Gal(b1-4)GlcNAc(b1-6)]Man(a1-6)[Gal(b1-4)GlcNAc(b1-3)Gal(b1-4)GlcNAc(b1-2)Man(a1-3)]Man(b1-4)GlcNAc(b1-4)[Fuc(a1-6)]GlcNAc
# Summary of the method: as §1
# [9] = target: Gal(b1-4)GlcNAc(b1-3)Gal(b1-4)GlcNAc(b1-3)Gal(b1-4)GlcNAc
# Summary of the method: as §1
# [10] = target: Gal(b1-4)GlcNAc(b1-3)Gal(b1-4)GlcNAc(b1-3)Gal(b1-4)GlcNAc(b1-2)Man(a1-3)[Gal(b1-4)GlcNAc(b1-3)Gal(b1-4)GlcNAc(b1-3)Gal(b1-4)GlcNAc(b1-2)Man(a1-6)]Man(b1-4)GlcNAc(b1-4)GlcNAc
# Summary of the method: as §1
# [11] = target: Gal(b1-4)GlcNAc(b1-3)Gal(b1-4)GlcNAc(b1-3)Gal(b1-4)GlcNAc(b1-2)Man(a1-3)[Gal(b1-4)GlcNAc(b1-3)Gal(b1-4)GlcNAc(b1-3)Gal(b1-4)GlcNAc(b1-2)Man(a1-6)]Man(b1-4)GlcNAc(b1-4)[Fuc(a1-6)]GlcNAc
# Summary of the method: as §1
# [12] = target: Gal(b1-4)GlcNAc(b1-3)Gal(b1-4)GlcNAc(b1-3)Gal(b1-4)GlcNAc(b1-2)[Gal(b1-4)GlcNAc(b1-3)Gal(b1-4)GlcNAc(b1-3)Gal(b1-4)GlcNAc(b1-6)]Man(a1-6)[Gal(b1-4)GlcNAc(b1-3)Gal(b1-4)GlcNAc(b1-3)Gal(b1-4)GlcNAc(b1-2)Man(a1-3)]Man(b1-4)GlcNAc(b1-4)[Fuc(a1-6)]GlcNAc
# Summary of the method: as §1
# [13] = target: Gal(b1-4)GlcNAc(b1-3)Gal(b1-4)GlcNAc(b1-3)Gal(b1-4)GlcNAc(b1-3)Gal(b1-4)GlcNAc(b1-2)Man(a1-3)[Gal(b1-4)GlcNAc(b1-3)Gal(b1-4)GlcNAc(b1-3)Gal(b1-4)GlcNAc(b1-3)Gal(b1-4)GlcNAc(b1-2)Man(a1-6)]Man(b1-4)GlcNAc(b1-4)GlcNAc
# Summary of the method: as §1
# [14] = target: Gal(b1-4)GlcNAc(b1-3)Gal(b1-4)GlcNAc(b1-3)Gal(b1-4)GlcNAc(b1-3)Gal(b1-4)GlcNAc(b1-2)Man(a1-3)[Gal(b1-4)GlcNAc(b1-3)Gal(b1-4)GlcNAc(b1-3)Gal(b1-4)GlcNAc(b1-3)Gal(b1-4)GlcNAc(b1-2)Man(a1-6)]Man(b1-4)GlcNAc(b1-4)[Fuc(a1-6)]GlcNAc
# Summary of the method: as §1
# [15] = target: Gal(b1-4)GlcNAc(b1-3)Gal(b1-4)GlcNAc(b1-3)Gal(b1-4)GlcNAc(b1-3)Gal(b1-4)GlcNAc(b1-2)[Gal(b1-4)GlcNAc(b1-3)Gal(b1-4)GlcNAc(b1-3)Gal(b1-4)GlcNAc(b1-3)Gal(b1-4)GlcNAc(b1-6)]Man(a1-6)[Gal(b1-4)GlcNAc(b1-3)Gal(b1-4)GlcNAc(b1-3)Gal(b1-4)GlcNAc(b1-3)Gal(b1-4)GlcNAc(b1-2)Man(a1-3)]Man(b1-4)GlcNAc(b1-4)[Fuc(a1-6)]GlcNAc
# Summary of the method: as §1
# [16] = target: Gal(b1-4)GlcNAc(b1-3)Gal(b1-4)GlcNAc(b1-3)Gal(b1-4)GlcNAc(b1-3)Gal(b1-4)GlcNAc(b1-3)Gal(b1-4)GlcNAc(b1-2)Man(a1-3)[Gal(b1-4)GlcNAc(b1-3)Gal(b1-4)GlcNAc(b1-3)Gal(b1-4)GlcNAc(b1-3)Gal(b1-4)GlcNAc(b1-3)Gal(b1-4)GlcNAc(b1-2)Man(a1-6)]Man(b1-4)GlcNAc(b1-4)GlcNAc
# Summary of the method: as §1
# [17] = target: Gal(b1-4)GlcNAc(b1-3)Gal(b1-4)GlcNAc(b1-3)Gal(b1-4)GlcNAc(b1-3)Gal(b1-4)GlcNAc(b1-3)Gal(b1-4)GlcNAc(b1-2)Man(a1-3)[Gal(b1-4)GlcNAc(b1-3)Gal(b1-4)GlcNAc(b1-3)Gal(b1-4)GlcNAc(b1-3)Gal(b1-4)GlcNAc(b1-3)Gal(b1-4)GlcNAc(b1-2)Man(a1-6)]Man(b1-4)GlcNAc(b1-4)[Fuc(a1-6)]GlcNAc
# Summary of the method: as §1
# [18] = target: Gal(b1-4)GlcNAc(b1-3)Gal(b1-4)GlcNAc(b1-3)Gal(b1-4)GlcNAc(b1-3)Gal(b1-4)GlcNAc(b1-3)Gal(b1-4)GlcNAc(b1-2)[Gal(b1-4)GlcNAc(b1-3)Gal(b1-4)GlcNAc(b1-3)Gal(b1-4)GlcNAc(b1-3)Gal(b1-4)GlcNAc(b1-3)Gal(b1-4)GlcNAc(b1-6)]Man(a1-6)[Gal(b1-4)GlcNAc(b1-3)Gal(b1-4)GlcNAc(b1-3)Gal(b1-4)GlcNAc(b1-3)Gal(b1-4)GlcNAc(b1-3)Gal(b1-4)GlcNAc(b1-2)Man(a1-3)]Man(b1-4)GlcNAc(b1-4)[Fuc(a1-6)]GlcNAc
# Summary of the method: as §1
# [19] = target: Gal(b1-4)GlcNAc(b1-3)Gal(b1-4)GlcNAc(b1-3)Gal(b1-4)GlcNAc(b1-3)Gal(b1-4)GlcNAc(b1-3)Gal(b1-4)GlcNAc(b1-3)Gal(b1-4)GlcNAc(b1-2)Man(a1-3)[Gal(b1-4)GlcNAc(b1-3)Gal(b1-4)GlcNAc(b1-3)Gal(b1-4)GlcNAc(b1-3)Gal(b1-4)GlcNAc(b1-3)Gal(b1-4)GlcNAc(b1-3)Gal(b1-4)GlcNAc(b1-2)Man(a1-6)]Man(b1-4)GlcNAc(b1-4)GlcNAc
# Summary of the method: as §1
# [20] = target: Gal(b1-4)GlcNAc(b1-3)Gal(b1-4)GlcNAc(b1-3)GalNAc
# Summary of the method: as §1
# [21] = target: Gal(b1-4)GlcNAc(b1-3)Gal(b1-4)GlcNAc(b1-3)[Gal(b1-4)GlcNAc(b1-3)Gal(b1-4)GlcNAc(b1-6)]GalNAc
# Summary of the method: as §1
# [22] = target: Gal(b1-4)GlcNAc(b1-3)Gal(b1-4)GlcNAc(b1-6)[Gal(b1-3)]GalNAc
# Summary of the method: as §1
binder,measurement,setting,value
"Endo180d1-D4 (Homo sapiens), Q9UBG0 (protein) MGPGRPAPAPWPRHLLRCVLLLGCLHLGRPGAPGDAALPEPNVFLIFSHGLQGCLEAQGGQVRVTPACNTSLPAQRWKWVSRNRLFNLGTMQCLGTGWPGTNTTASLGMYECDREALNLRWHCRTLGDQLSLLLGARTSNISKPGTLERGDQTRSGQWRIYGSEEDLCALPYHEVYTIQGNSHGKPCTIPFKYDNQWFHGCTSTGREDGHLWCATTQDYGKDERWGFCPIKSNDCETFWDKDQLTDSCYQFNFQSTLSWREAWASCEQQGADLLSITEIHEQTYINGLLTGYSSTLWIGLNDLDTSGGWQWSDNSPLKYLNWESDQPDNPSEENCGVIRTESSGGWQNRDCSIALPYVCKKKPNATAEPTPPDRWANVKVECEPSWQPFQGHCYRLQAEKRSWQESKKACLRGGGDLVSIHSMAELEFITKQIKQEVEELWIGLNDLKLQMNFEWSDGSLVSFTHWHPFEPNNFRDSLEDCVTIWGPEGRWNDSPCNQSLPSICKKAGQLSQGAAEEDHGCRKGWTWHSPSCYWLGEDQVTYSEARRLCTDHGSQLVTITNRFEQAFVSSLIYNWEGEYFWTALQDLNSTGSFFWLSGDEVMYTHWNRDQPGYSRGGCVALATGSAMGLWEVKNCTSFRARYICRQSLGTPVTPELPGPDPTPSLTGSCPQGWASDTKLRYCYKVFSSERLQDKKSWVQAQGACQELGAQLLSLASYEEEHFVANMLNKIFGESEPEIHEQHWFWIGLNRRDPRGGQSWRWSDGVGFSYHNFDRSRHDDDDIRGCAVLDLASLQWVAMQCDTQLDWICKIPRGTDVREPDDSPQGRREWLRFQEAEYKFFEHHSTWAQAQRICTWFQAELTSVHSQAELDFLSHNLQKFSRAQEQHWWIGLHTSESDGRFRWTDGSIINFISWAPGKPRPVGKDKKCVYMTASREDWGDQRCLTALPYICKRSNVTKETQPPDLPTTALGGCPSDWIQFLNKCFQVQGQEPQSRVKWSEAQFSCEQQEAQLVTITNPLEQAFITASLPNVTFDLWIGLHASQRDFQWVEQEPLMYANWAPGEPSGPSPAPSGNKPTSCAVVLHSPSAHFTGRWDDRSCTEETHGFICQKGTDPSLSPSPAALPPAPGTELSYLNGTFRLLQKPLRWHDALLLCESHNASLAYVPDPYTQAFLTQAARGLRTPLWIGLAGEEGSRRYSWVSEEPLNYVGWQDGEPQQPGGCTYVDVDGAWRTTSCDTKLQGAVCGVSSGPPPPRRISYHGSCPQGLADSAWIPFREHCYSFHMELLLGHKEARQRCQRAGGAVLSILDEMENVFVWEHLQSYEGQSRGAWLGMNFNPKGGTLVWQDNTAVNYSNWGPPGLGPSMLSHNSCYWIQSNSGLWRPGACTNITMGVVCKLPRAEQSSFSPSALPENPAALVVVLMAVLLLLALLTAALILYRRRQSIERGAFEGARYSRSSSSPTEATEKNILVSDMEMNEQQE",glycan array binding signal (z-score),[1],-1.55
same,glycan array binding signal (z-score),[2],0.375
same,glycan array binding signal (z-score),[3],-0.161
same,glycan array binding signal (z-score),[4],-0.342
same,glycan array binding signal (z-score),[5],-1.02
same,glycan array binding signal (z-score),[6],0.72
same,glycan array binding signal (z-score),[7],0.373
same,glycan array binding signal (z-score),[8],0.287
same,glycan array binding signal (z-score),[9],-0.61
same,glycan array binding signal (z-score),[10],-0.083
same,glycan array binding signal (z-score),[11],-0.289
same,glycan array binding signal (z-score),[12],-0.373
same,glycan array binding signal (z-score),[13],-0.336
same,glycan array binding signal (z-score),[14],1.19
same,glycan array binding signal (z-score),[15],0.971
same,glycan array binding signal (z-score),[16],-0.136
same,glycan array binding signal (z-score),[17],1.04
same,glycan array binding signal (z-score),[18],0.63
same,glycan array binding signal (z-score),[19],1.63
same,glycan array binding signal (z-score),[20],0.585
same,glycan array binding signal (z-score),[21],0.056
same,glycan array binding signal (z-score),[22],-0.22
